The record followed here is patent US20030203415A1 (published 2003).

These are yes or no findings as the source states them, for the method shown. Some results given as binding are weak or reduced against the parent protein; the word gives no strength.

Experiment [1] addresses T1, H6NA3 (UniProt P06731 35-144; P06731 499-590, limits assumed).
T1 construct: domain: N domain;domain: A3 domain; recombinant truncated target
T1 sequence: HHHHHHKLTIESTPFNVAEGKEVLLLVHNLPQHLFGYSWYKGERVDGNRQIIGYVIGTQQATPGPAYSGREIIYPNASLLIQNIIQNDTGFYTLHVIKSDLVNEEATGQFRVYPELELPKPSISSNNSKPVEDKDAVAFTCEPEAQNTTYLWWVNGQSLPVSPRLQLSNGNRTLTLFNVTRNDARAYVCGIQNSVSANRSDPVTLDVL
The experiment can be described thus: phage ELISA on NA3.

The target in experiment [2] is T1, H6NA3. As to the kind of experiment: phage ELISA, varying amounts of NA3 per well.

Consider NWVCEWLKPQWWCNSY [304A-15-G08], for which the binding result in the experiment with H6NA3 [1] is reported as “binds”.

DWYCNLFKNQWFCDVL [304A-13-C10]: the binding entry with H6NA3 [1] is “binds”. Turning to DWVCEWSKMQWSCNAL [304A-15-B08], the binding entry with H6NA3 [1] is on record as “binds”. DWVCNLFKNQWFCDQV [304A-14-A02]: in the experiment with H6NA3 [1], the binding entry is “binds”. As for DWYCNLFKNQWFCDVY [304A-15-E01], the binding result in the experiment with H6NA3 [1] is listed as “binds”. As for DWVCEYAKNQWNCNPL [304A-15-G06], the binding entry with H6NA3 [1] is recorded as “binds”. Same read-out and setting: to DWVCEYNDEQWTCNLL [304A-13-A11] belongs “binds”; to NWVCDYWKPQWFCNSY [304A-15-B07], “binds”; to DWVCELFKPQWFCNIL [304A-15-H07], “binds”. For DWVCNWLWGQWTCNLL [304A-15-H03], in the experiment with H6NA3 [1], the binding entry is “binds”. Still for that read-out and setting: to DWVCELVKAQWYCNIL [304A-13-H07] belongs “binds”.

Regarding DWICNLFKNQWFCNEA [304A-13-A12], the binding result with H6NA3 [1] was “binds”. NWVCNLFKNQWFCDTV [304A-13-G08]: in the experiment with H6NA3 [1], the binding entry is given as “binds”. Still for that read-out and setting: as for DWVCEWFKPQWFCNPL [304A-13-A10], the entry is “binds”; as for DWVCEFFKKQWFCNLL [304A-15-A02], “binds”.

As to DWVCEYDKGQWHCNIL [304A-15-G02], in the experiment with H6NA3 [1], the binding result was “binds”. The same measure, in the same setting: to DWVCEYFKSQWMCNML [304A-15-G11] belongs “binds”. Turning to DWVCNLFKNQWFCDVP [304A-14-B02], the binding entry in the experiment with H6NA3 [1] and with H6NA3 [2] was “binds” each time. Take DWVCEYEKDQWSCNIL [304A-14-F10]: the binding result in the experiment with H6NA3 [1] is on record as “binds”.

Take DWVCEYAKFQWICNIL [304A-15-H12]: in the experiment with H6NA3 [1], the binding entry is on record as “binds”. As to DWVCDYKFFQWTCNLL [304A-15-F08], in the experiment with H6NA3 [1], the binding result is “binds”.

As for NWVCNLFKNQWFCDEM [304A-15-G07], in the experiment with H6NA3 [1], the binding entry is “binds”.

With DWYCNLFKNQWFCDLV [304A-15-E07], the binding entry in the experiment with H6NA3 [1] is reported as “binds”.

Regarding DWVCEVIKDQWVCNPL [304A-15-A05], the binding entry with H6NA3 [1] is “binds”. Still for that read-out and setting: to DWVCEMFKKQWVCNPL [304A-15-C04] belongs “binds”; to DWVCNLFKNQWFCNPF [304A-13-B02], “binds”; to DWVCNLFKNQWFCDAL [304A-14-A10], “binds”. The same measure, in the same setting: to DWICNLFKNQWFCEAH [304A-13-F05] belongs “binds”. As for DWVCNWELFQWTCNLL [304A-14-C01], in the experiment with H6NA3 [1], the binding result is reported as “binds”.

Consider DWVCNLFFGQWTCNLL [304A-13-E04], for which, in the experiment with H6NA3 [1], the binding entry is reported as “binds”. For DWVCEFFKDQWSCNVL [304A-14-H02], the binding entry with H6NA3 [1] is recorded as “binds”.

For the molecule DWVCEFFGMQWTCNLL [304A-15-F12], the binding entry with H6NA3 [1] is “binds”. Same read-out and setting: to DWVCEFYKSQWNCNIL [304A-13-C09] belongs “binds”. On the same count and under the same terms, as for DWVCEFIKNQWMCNVL [304A-14-H08], the entry is “binds”.

Turning to DWVCEYFKNQWFCNVL [304A-12-H12], the binding entry with H6NA3 [1] and with H6NA3 [2] was “binds” each time.

With DWVCEFMKHQWFCNPL [304A-14-H03], the binding entry with H6NA3 [1] is given as “binds”. For DWFCNLFKNQWFCSPI [304A-15-G01], the binding entry with H6NA3 [1] is on record as “binds”. Turning to DWVCNLFKNQWFCDSL [304A-14-A03], in the experiment with H6NA3 [1], the binding entry is reported as “binds”.

In the case of NWVCNLFKNQWFCEWA [304A-15-A07], the binding result with H6NA3 [1] is on record as “binds”. The same measure, in the same setting: to DWICNLFKNQWFCQAV [304A-14-B06] belongs “binds”; to DWVCENKNFKWFCNLL [304A-15-E05], “binds”. On to DWICNLFKNQWFCQQH [304A-15-C03], for which, in the experiment with H6NA3 [1], the binding result is recorded as “binds”.

For the molecule NWVCDVLKWQWPCNSY [304A-15-F02], the binding entry with H6NA3 [1] is given as “binds”. Take DWVCEFFKPQWMCNIL [304A-15-H09]: the binding result with H6NA3 [1] is listed as “binds”. The same measure, in the same setting: to DWVCNLFKNQWFCDVQ [304A-13-A03] belongs “binds”. The same measure, in the same setting: as for DWVCEFFKQQWFCNVL [304A-14-G02], the entry is “binds”.
